# Source: paper PMC7067850, “Identification of highly potent and selective inhibitor, TIPTP, of the p22phox-Rubicon axis as a therapeutic agent for rheumatoid arthritis” (Scientific Reports, 2020)
# Chains of the proteins cited; added tags and fusions are not shown. Residues count along the entry.
# UniProt Q9QUK6, residues 26-835: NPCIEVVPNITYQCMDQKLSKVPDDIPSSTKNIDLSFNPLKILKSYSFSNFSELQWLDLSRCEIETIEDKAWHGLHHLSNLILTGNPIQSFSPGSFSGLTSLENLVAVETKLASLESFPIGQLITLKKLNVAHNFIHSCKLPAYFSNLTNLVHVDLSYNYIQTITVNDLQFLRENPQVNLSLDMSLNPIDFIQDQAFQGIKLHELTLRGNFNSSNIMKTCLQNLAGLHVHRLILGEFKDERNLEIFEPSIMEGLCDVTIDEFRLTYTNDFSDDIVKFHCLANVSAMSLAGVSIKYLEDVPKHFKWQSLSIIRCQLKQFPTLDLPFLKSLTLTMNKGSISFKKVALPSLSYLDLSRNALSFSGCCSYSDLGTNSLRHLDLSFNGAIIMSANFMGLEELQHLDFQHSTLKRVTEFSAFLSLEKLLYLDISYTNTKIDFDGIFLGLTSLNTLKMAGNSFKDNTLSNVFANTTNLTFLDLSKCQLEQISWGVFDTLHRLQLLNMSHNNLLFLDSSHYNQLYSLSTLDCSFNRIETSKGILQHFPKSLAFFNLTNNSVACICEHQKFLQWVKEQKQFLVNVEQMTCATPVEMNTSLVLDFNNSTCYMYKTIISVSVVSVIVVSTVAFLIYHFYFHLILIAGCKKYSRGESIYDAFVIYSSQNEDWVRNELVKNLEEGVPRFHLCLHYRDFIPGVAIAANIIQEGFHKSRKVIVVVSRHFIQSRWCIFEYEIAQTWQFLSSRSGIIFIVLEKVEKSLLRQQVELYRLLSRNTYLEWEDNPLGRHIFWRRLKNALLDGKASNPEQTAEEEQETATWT
# Results are given in words; binding and its absence hold for the method and conditions named. In cells and extracts the contact can be indirect. Some results given as binding are weak or reduced against the parent protein; the word gives no strength.
# B1: NOX2 (human, endogenous) (protein, UniProt P04839 1-570)
# chain: MGNWAVNEGLSIFVILVWLGLNVFLFVWYYRVYDIPPKFFYTRKLLGSALALARAPAACLNFNCMLILLPVCRNLLSFLRGSSACCSTRVRRQLDRNLTFHKMVAWMIALHSAIHTIAHLFNVEWCVNARVNNSDPYSVALSELGDRQNESYLNFARKRIKNPEGGLYLAVTLLAGITGVVITLCLILIITSSTKTIRRSYFEVFWYTHHLFVIFFIGLAIHGAERIVRGQTAESLAVHNITVCEQKISEWGKIKECPIPQFAGNPPMTWKWIVGPMFLYLCERLVRFWRSQQKVVITKVVTHPFKTIELQMKKKGFKMEVGQYIFVKCPKVSKLEWHPFTLTSAPEEDFFSIHIRIVGDWTEGLFNACGCDKQEFQDAWKLPKIAVDGPFGTASEDVFSYEVVMLVGAGIGVTPFASILKSVWYKYCNNATNLKLKKIYFYWLCRDTHAFEWFADLLQLLESQMQERNNAGFLSYNIYLTGWDESQANHFAVHHDEEKDVITGLKQKTLYGRPNWDNEFKTIASQHPNTRIGVFLCGPEALAETLSKQSISNSESGPRGVHFIFNKENF
# B2: NOX4 (human, endogenous) (protein, UniProt Q9NPH5 1-578)
# chain: MAVSWRSWLANEGVKHLCLFIWLSMNVLLFWKTFLLYNQGPEYHYLHQMLGLGLCLSRASASVLNLNCSLILLPMCRTLLAYLRGSQKVPSRRTRRLLDKSRTFHITCGVTICIFSGVHVAAHLVNALNFSVNYSEDFVELNAARYRDEDPRKLLFTTVPGLTGVCMVVVLFLMITASTYAIRVSNYDIFWYTHNLFFVFYMLLTLHVSGGLLKYQTNLDTHPPGCISLNRTSSQNISLPEYFSEHFHEPFPEGFSKPAEFTQHKFVKICMEEPRFQANFPQTWLWISGPLCLYCAERLYRYIRSNKPVTIISVMSHPSDVMEIRMVKENFKARPGQYITLHCPSVSALENHPFTLTMCPTETKATFGVHLKIVGDWTERFRDLLLPPSSQDSEILPFIQSRNYPKLYIDGPFGSPFEESLNYEVSLCVAGGIGVTPFASILNTLLDDWKPYKLRRLYFIWVCRDIQSFRWFADLLCMLHNKFWQENRPDYVNIQLYLSQTDGIQKIIGEKYHALNSRLFIGRPRWKLLFDEIAKYNRGKTVGVFCCGPNSLSKTLHKLSNQNNSYGTRFEYNKESFS
# B3: NOX5 (human, endogenous) (protein, UniProt Q96PH1 1-765)
# chain: MNTSGDPAQTGPEGCRGTMSAEEDARWLRWVTQQFKTIAGEDGEISLQEFKAALHVKESFFAERFFALFDSDRSGTITLQELQEALTLLIHGSPMDKLKFLFQVYDIDVCARQGASAGTEWGAGAGPHWASSPLGTGSGSIDPDELRTVLQSCLRESAISLPDEKLDQLTLALFESADADGNGAITFEELRDELQRFPGVMENLTISAAHWLTAPAPRPRPRRPRQLTRAYWHNHRSQLFCLATYAGLHVLLFGLAASAHRDLGASVMVAKGCGQCLNFDCSFIAVLMLRRCLTWLRATWLAQVLPLDQNIQFHQLMGYVVVGLSLVHTVAHTVNFVLQAQAEASPFQFWELLLTTRPGIGWVHGSASPTGVALLLLLLLMFICSSSCIRRSGHFEVFYWTHLSYLLVWLLLIFHGPNFWKWLLVPGILFFLEKAIGLAVSRMAAVCIMEVNLLPSKVTHLLIKRPPFFHYRPGDYLYLNIPTIARYEWHPFTISSAPEQKDTIWLHIRSQGQWTNRLYESFKASDPLGRGSKRLSRSVTMRKSQRSSKGSEILLEKHKFCNIKCYIDGPYGTPTRRIFASEHAVLIGAGIGITPFASILQSIMYRHQKRKHTCPSCQHSWIEGVQDNMKLHKVDFIWINRDQRSFEWFVSLLTKLEMDQAEEAQYGRFLELHMYMTSALGKNDMKAIGLQMALDLLANKEKKDSITGLQTRTQPGRPDWSKVFQKVAAEKKGKVQVFFCGSPALAKVLKGHCEKFGFRFFQENF
# B4: Run/cysteine-rich-domain-containing Beclin1-interacting autophagy protein (Rubicon) (mouse, endogenous) (protein, UniProt Q80U62 1-956)
# chain: MRPEGAGMDLGGGDGERLLEKSRREHWQLLGNLKTTVEGLVSANCPNVWSKYGGLERLCRDMQNILYHGLIHDQVCCRQADYWQFVKDIRWLSPHSALHVEKFISLHESDQSDTDSVSERAVAELWLQHSLQCHCLSAQLRPLLGDRQYIRKFYTETAFLLSDAHVTAMLQCLEAVEQNNPRLLAQIDASMFARKQESPLLVTKSQSLTALPGSTYTPPASYAQHSYFGSSSSLQSMPQSSHSSERRSTSFSLSGPSWQPQEDRECLSPAETQTTPAPLPSDSTLAQDSPLTAQEMSDSTLTSPLEASWVSSQNDSPSDVSEGPEYLAIGNPAPHGRTASCESHSSNGESSSSHLFSSSSSQKLESAASSLGDQEEGRQSQAGSVLRRSSFSEGQTAPVASGTKKSHIRSHSDTNIASRGAAGGPRNITIIVEDPIAEGGQYLCSGEGMFRRPSEGQSLISYLSEQDFGSCADLEKENAHFSISESLIAAIELMKCNMMSQCLEEEEVEEEDSDREIQELKQKIRLRRQQIRTKNLLPAYRETENGSFRVTSSSSQFSSRDSTQLSESGSAEDADDLEIQDADIRRSAVSNGKSSFSQNLSHCFLHSTSAEAVAMGLLKQFEGMQLPAASELEWLVPEHDAPQKLLPIPDSLPISPDDGQHADIYKLRIRVRGNLEWAPPRPQIIFNVHPAPTRKIAVAKQNYRCAGCGIRTDPDYIKRLRYCEYLGKYFCQCCHENAQMVVPSRILRKWDFSKYYVSNFSKDLLLKIWNDPLFNVQDINSALYRKVKLLNQVRLLRVQLYHMKNMFKTCRLAKELLDSFDVVPGHLTEDLHLYSLSDLTATKKGELGPRLAELTRAGAAHVERCMLCQAKGFICEFCQNEEDVIFPFELHKCRTCEECKACYHKTCFKSGRCPRCERLQARRELLAKQSLESYLSDYEEEPTEALALEATVLETT
# B5: NOX2/gp91phox (mouse, endogenous) (protein, UniProt Q61093 1-570)
# chain: MGNWAVNEGLSIFVILVWLGLNVFLFINYYKVYDDGPKYNYTRKLLGSALALARAPAACLNFNCMLILLPVCRNLLSFLRGSSACCSTRIRRQLDRNLTFHKMVAWMIALHTAIHTIAHLFNVEWCVNARVGISDRYSIALSDIGDNENEEYLNFAREKIKNPEGGLYVAVTRLAGITGIVITLCLILIITSSTKTIRRSYFEVFWYTHHLFVIFFIGLAIHGAERIVRGQTAESLEEHNLDICADKIEEWGKIKECPVPKFAGNPPMTWKWIVGPMFLYLCERLVRFWRSQQKVVITKVVTHPFKTIELQMKKKGFKMEVGQYIFVKCPKVSKLEWHPFTLTSAPEEDFFSIHIRIVGDWTEGLFNACGCDKQEFQDAWKLPKIAVDGPFGTASEDVFSYEVVMLVGAGIGVTPFASILKSVWYKYCDNATSLKLKKIYFYWLCRDTHAFEWFADLLQLLETQMQERNNANFLSYNIYLTGWDESQANHFAVHHDEEKDVITGLKQKTLYGRPNWDNEFKTIASEHPNTTIGVFLCGPEALAETLSKQSISNSESGPRGVHFIFNKENF
# B6: NOX4 (mouse, endogenous) (protein, UniProt Q9JHI8 1-578)
# chain: MAVSWRSWLANEGVKHLCLLIWLSLNVLLFWKTFLLYNQGPEYYYIHQMLGLGLCLSRASASVLNLNCSLILLPMCRTVLAYLRGSQKVPSRRTRRLLDKSKTLHITCGVTICIFSGVHVAAHLVNALNFSVNYSEDFLELNAARYQNEDPRKLLFTTIPGLTGVCMVVVLFLMVTASTYAIRVSNYDIFWYTHNLFFVFYMLLLLHVSGGLLKYQTNVDTHPPGCISLNQTSSQNMSIPDYVSEHFHGSLPRGFSKLEDRYQKTLVKICLEEPKFQAHFPQTWIWISGPLCLYCAERLYRCIRSNKPVTIISVINHPSDVMELRMIKENFKARPGQYIILHCPSVSALENHPFTLTMCPTETKATFGVHFKVVGDWTERFRDLLLPPSSQDSEILPFIHSRNYPKLYIDGPFGSPFEESLNYEVSLCVAGGIGVTPFASILNTLLDDWKPYKLRRLYFIWVCRDIQSFQWFADLLCVLHNKFWQENRPDFVNIQLYLSQTDGIQKIIGEKYHTLNSRLFIGRPRWKLLFDEIAKCNRGKTVGVFCCGPSSISKTLHSLSNRNNSYGTKFEYNKESFS
# B7: TRAF6 (mouse, endogenous) (protein, UniProt P70196 1-530)
# chain: MSLLNCENSCGSSQSSSDCCAAMAASCSAAVKDDSVSGSASTGNLSSSFMEEIQGYDVEFDPPLESKYECPICLMALREAVQTPCGHRFCKACIIKSIRDAGHKCPVDNEILLENQLFPDNFAKREILSLTVKCPNKGCLQKMELRHLEDHQVHCEFALVNCPQCQRPFQKCQVNTHIIEDCPRRQVSCVNCAVSMAYEEKEIHDQSCPLANIICEYCGTILIREQMPNHYDLDCPTAPIPCTFSVFGCHEKMQRNHLARHLQENTQLHMRLLAQAVHNVNLALRPCDAASPSRGCRPEDPNYEETIKQLESRLVRQDHQIRELTAKMETQSMYVGELKRTIRTLEDKVAEMEAQQCNGIYIWKIGNFGMHLKSQEEERPVVIHSPGFYTGRPGYKLCMRLHLQLPTAQRCANYISLFVHTMQGEYDSHLPWPFQGTIRLTILDQSEALIRQNHEEVMDAKPELLAFQRPTIPRNPKGFGYVTFMHLEALRQGTFIKDDTLLVRCEVSTRFDMGGLRKEGFQPRSTDAGV
# Molecular target: T1, p22phox (human, endogenous) (human (endogenous in monocytes and in synoviocytes of RA patients)) (UniProt P13498)
# T1 sequence: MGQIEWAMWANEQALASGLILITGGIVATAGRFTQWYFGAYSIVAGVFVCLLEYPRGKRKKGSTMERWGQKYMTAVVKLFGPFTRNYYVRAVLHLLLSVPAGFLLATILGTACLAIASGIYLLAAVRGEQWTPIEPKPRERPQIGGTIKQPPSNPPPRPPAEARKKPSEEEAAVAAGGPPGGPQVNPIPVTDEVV
# Assay: co-IP; endogenous proteins, LPS-primed synoviocytes from patients with RA (or OA) treated with TIPTP, then activated with ATP; IP with anti-p22phox or anti-Rubicon, immunoblot (Fig. 6c, Supplemental Fig. 7)
row,Molecule,binding
1,B1,binds
2,B2,binds
3,B3,binds

# Molecular target: T2, p22phox subunit of NADPH oxidase (mouse, endogenous) (mouse (endogenous in synoviocytes of CIA mice, BMDMs, Raw264.7)) (UniProt Q61462)
# T2 sequence: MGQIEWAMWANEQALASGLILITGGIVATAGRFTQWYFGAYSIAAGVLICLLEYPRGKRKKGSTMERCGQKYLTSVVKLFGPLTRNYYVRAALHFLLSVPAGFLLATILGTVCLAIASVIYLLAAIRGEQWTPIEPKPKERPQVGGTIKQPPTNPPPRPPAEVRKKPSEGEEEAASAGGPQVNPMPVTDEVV
# Assay: co-IP; endogenous proteins, synovial fluid containing synoviocytes from CIA mice at the indicated times (also from CIA mice treated with TIPTP or vehicle); NP-40 buffer lysates, IP with anti-p22phox or anti-Rubicon, protein A/G agarose, immunoblot
row,Molecule,binding
1,"TLR4 (mouse, endogenous) (from UniProt Q9QUK6 26-835) (receptor)",no binding
2,B4,binds
3,B5,binds
4,B6,binds
5,B7,no binding
